Data published in the supplement of paper PMC8728848.
The list shows a part of the results.

Key:
Experiment in all cases: glycan array binding signal (z-score within array); higher = stronger binding
Conditions in all cases: glycan notation: IUPAC condensed, linker removed
[1] = molecular target: Gal(b1-4)GlcNAc(b1-3)Gal(b1-4)GlcNAc(b1-2)[Gal(b1-4)GlcNAc(b1-3)Gal(b1-4)GlcNAc(b1-6)]Man(a1-6)[Gal(b1-4)GlcNAc(b1-3)Gal(b1-4)GlcNAc(b1-2)Man(a1-3)]Man(b1-4)GlcNAc(b1-4)GlcNAc
In short: (§1)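 Glycan array binding is given as a within-array Z-score, which can be read as non-binding when negative. The arrays, 3228 of them, came from the Consortium for Functional Glycomics database and were retained only where the protein sequence was available. Z-scores were averaged across arrays of the same protein sequence at different concentrations or buffers and across linkers.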

[2] = molecular target: Gal(b1-4)GlcNAc(b1-3)Gal(b1-4)GlcNAc(b1-2)[Gal(b1-4)GlcNAc(b1-3)Gal(b1-4)GlcNAc(b1-6)]Man(a1-6)[Gal(b1-4)GlcNAc(b1-3)Gal(b1-4)GlcNAc(b1-2)Man(a1-3)]Man(b1-4)GlcNAc(b1-4)[Fuc(a1-6)]GlcNAc
In short: as §1

[3] = molecular target: Gal(b1-4)GlcNAc(b1-3)Gal(b1-4)GlcNAc(b1-3)Gal(b1-4)GlcNAc
In short: as §1

[4] = molecular target: Gal(b1-4)GlcNAc(b1-3)Gal(b1-4)GlcNAc(b1-3)Gal(b1-4)GlcNAc(b1-2)Man(a1-3)[Gal(b1-4)GlcNAc(b1-3)Gal(b1-4)GlcNAc(b1-3)Gal(b1-4)GlcNAc(b1-2)Man(a1-6)]Man(b1-4)GlcNAc(b1-4)GlcNAc
In short: as §1

[5] = molecular target: Gal(b1-4)GlcNAc(b1-3)Gal(b1-4)GlcNAc(b1-3)Gal(b1-4)GlcNAc(b1-2)Man(a1-3)[Gal(b1-4)GlcNAc(b1-3)Gal(b1-4)GlcNAc(b1-3)Gal(b1-4)GlcNAc(b1-2)Man(a1-6)]Man(b1-4)GlcNAc(b1-4)[Fuc(a1-6)]GlcNAc
In short: as §1

[6] = molecular target: Gal(b1-4)GlcNAc(b1-3)Gal(b1-4)GlcNAc(b1-3)Gal(b1-4)GlcNAc(b1-2)[Gal(b1-4)GlcNAc(b1-3)Gal(b1-4)GlcNAc(b1-3)Gal(b1-4)GlcNAc(b1-6)]Man(a1-6)[Gal(b1-4)GlcNAc(b1-3)Gal(b1-4)GlcNAc(b1-3)Gal(b1-4)GlcNAc(b1-2)Man(a1-3)]Man(b1-4)GlcNAc(b1-4)[Fuc(a1-6)]GlcNAc
In short: as §1

[7] = molecular target: Gal(b1-4)GlcNAc(b1-3)Gal(b1-4)GlcNAc(b1-3)Gal(b1-4)GlcNAc(b1-3)Gal(b1-4)GlcNAc(b1-2)Man(a1-3)[Gal(b1-4)GlcNAc(b1-3)Gal(b1-4)GlcNAc(b1-3)Gal(b1-4)GlcNAc(b1-3)Gal(b1-4)GlcNAc(b1-2)Man(a1-6)]Man(b1-4)GlcNAc(b1-4)GlcNAc
In short: as §1

[8] = molecular target: Gal(b1-4)GlcNAc(b1-3)Gal(b1-4)GlcNAc(b1-3)Gal(b1-4)GlcNAc(b1-3)Gal(b1-4)GlcNAc(b1-2)Man(a1-3)[Gal(b1-4)GlcNAc(b1-3)Gal(b1-4)GlcNAc(b1-3)Gal(b1-4)GlcNAc(b1-3)Gal(b1-4)GlcNAc(b1-2)Man(a1-6)]Man(b1-4)GlcNAc(b1-4)[Fuc(a1-6)]GlcNAc
In short: as §1

[9] = molecular target: Gal(b1-4)GlcNAc(b1-3)Gal(b1-4)GlcNAc(b1-3)Gal(b1-4)GlcNAc(b1-3)Gal(b1-4)GlcNAc(b1-2)[Gal(b1-4)GlcNAc(b1-3)Gal(b1-4)GlcNAc(b1-3)Gal(b1-4)GlcNAc(b1-3)Gal(b1-4)GlcNAc(b1-6)]Man(a1-6)[Gal(b1-4)GlcNAc(b1-3)Gal(b1-4)GlcNAc(b1-3)Gal(b1-4)GlcNAc(b1-3)Gal(b1-4)GlcNAc(b1-2)Man(a1-3)]Man(b1-4)GlcNAc(b1-4)[Fuc(a1-6)]GlcNAc
In short: as §1

[10] = molecular target: Gal(b1-4)GlcNAc(b1-3)Gal(b1-4)GlcNAc(b1-3)Gal(b1-4)GlcNAc(b1-3)Gal(b1-4)GlcNAc(b1-3)Gal(b1-4)GlcNAc(b1-2)Man(a1-3)[Gal(b1-4)GlcNAc(b1-3)Gal(b1-4)GlcNAc(b1-3)Gal(b1-4)GlcNAc(b1-3)Gal(b1-4)GlcNAc(b1-3)Gal(b1-4)GlcNAc(b1-2)Man(a1-6)]Man(b1-4)GlcNAc(b1-4)GlcNAc
In short: as §1

[11] = molecular target: Gal(b1-4)GlcNAc(b1-3)Gal(b1-4)GlcNAc(b1-3)Gal(b1-4)GlcNAc(b1-3)Gal(b1-4)GlcNAc(b1-3)Gal(b1-4)GlcNAc(b1-2)Man(a1-3)[Gal(b1-4)GlcNAc(b1-3)Gal(b1-4)GlcNAc(b1-3)Gal(b1-4)GlcNAc(b1-3)Gal(b1-4)GlcNAc(b1-3)Gal(b1-4)GlcNAc(b1-2)Man(a1-6)]Man(b1-4)GlcNAc(b1-4)[Fuc(a1-6)]GlcNAc
In short: as §1

[12] = molecular target: Gal(b1-4)GlcNAc(b1-3)Gal(b1-4)GlcNAc(b1-3)Gal(b1-4)GlcNAc(b1-3)Gal(b1-4)GlcNAc(b1-3)Gal(b1-4)GlcNAc(b1-2)[Gal(b1-4)GlcNAc(b1-3)Gal(b1-4)GlcNAc(b1-3)Gal(b1-4)GlcNAc(b1-3)Gal(b1-4)GlcNAc(b1-3)Gal(b1-4)GlcNAc(b1-6)]Man(a1-6)[Gal(b1-4)GlcNAc(b1-3)Gal(b1-4)GlcNAc(b1-3)Gal(b1-4)GlcNAc(b1-3)Gal(b1-4)GlcNAc(b1-3)Gal(b1-4)GlcNAc(b1-2)Man(a1-3)]Man(b1-4)GlcNAc(b1-4)[Fuc(a1-6)]GlcNAc
In short: as §1

[13] = molecular target: Gal(b1-4)GlcNAc(b1-3)Gal(b1-4)GlcNAc(b1-3)Gal(b1-4)GlcNAc(b1-3)Gal(b1-4)GlcNAc(b1-3)Gal(b1-4)GlcNAc(b1-3)Gal(b1-4)GlcNAc(b1-2)Man(a1-3)[Gal(b1-4)GlcNAc(b1-3)Gal(b1-4)GlcNAc(b1-3)Gal(b1-4)GlcNAc(b1-3)Gal(b1-4)GlcNAc(b1-3)Gal(b1-4)GlcNAc(b1-3)Gal(b1-4)GlcNAc(b1-2)Man(a1-6)]Man(b1-4)GlcNAc(b1-4)GlcNAc
In short: as §1

[14] = molecular target: Gal(b1-4)GlcNAc(b1-3)Gal(b1-4)GlcNAc(b1-3)GalNAc
In short: as §1

[15] = molecular target: Gal(b1-4)GlcNAc(b1-3)Gal(b1-4)GlcNAc(b1-3)[Gal(b1-4)GlcNAc(b1-3)Gal(b1-4)GlcNAc(b1-6)]GalNAc
In short: as §1

[16] = molecular target: Gal(b1-4)GlcNAc(b1-3)Gal(b1-4)GlcNAc(b1-6)[Gal(b1-3)]GalNAc
In short: as §1

[17] = molecular target: Gal(b1-4)GlcNAc(b1-3)Gal(b1-4)[Fuc(a1-3)]GlcNAc(b1-3)Gal(b1-4)[Fuc(a1-3)]GlcNAc
In short: as §1

[18] = molecular target: Gal(b1-4)GlcNAc(b1-3)GalNAc
In short: as §1

[19] = molecular target: Gal(b1-4)GlcNAc(b1-3)[Fuc(a1-3)GlcNAc(b1-6)]Gal(b1-4)Glc
In short: as §1

[20] = molecular target: Gal(b1-4)GlcNAc(b1-3)[Gal(b1-4)GlcNAc(b1-6)]Gal(b1-4)GlcNAc
In short: as §1

[21] = molecular target: Gal(b1-4)GlcNAc(b1-3)[GlcNAc(b1-6)]Gal(b1-4)GlcNAc
In short: as §1

[22] = molecular target: Gal(b1-4)GlcNAc(b1-6)Gal(b1-4)GlcNAc
In short: as §1

[23] = molecular target: Gal(b1-4)GlcNAc(b1-6)GalNAc
In short: as §1

[24] = molecular target: Gal(b1-4)GlcNAc(b1-6)[Gal(b1-3)]GalNAc
In short: as §1

[25] = molecular target: Gal(b1-4)GlcNAc(b1-6)[Gal(b1-4)GlcNAc(b1-3)]GalNAc
In short: as §1

Gal(b1-4)GlcNAc6P = molecular target: Gal(b1-4)GlcNAc6P
In short: as §1

Gal(b1-6)Gal = molecular target: Gal(b1-6)Gal
In short: as §1

Gal3S(b1-3)GalNAc = molecular target: Gal3S(b1-3)GalNAc
In short: as §1

Gal3S(b1-3)GlcNAc = molecular target: Gal3S(b1-3)GlcNAc
In short: as §1

[26] = molecular target: Gal3S(b1-3)[Fuc(a1-4)]GlcNAc
In short: as §1

Gal3S(b1-4)Glc = molecular target: Gal3S(b1-4)Glc
In short: as §1

Gal3S(b1-4)Glc6S = molecular target: Gal3S(b1-4)Glc6S
In short: as §1

Gal3S(b1-4)GlcNAc = molecular target: Gal3S(b1-4)GlcNAc
In short: as §1

[27] = molecular target: Gal3S(b1-4)[Fuc(a1-3)]Glc6S
In short: as §1

[28] = molecular target: Gal3S(b1-4)[Fuc(a1-3)]GlcNAc
In short: as §1

[29] = molecular target: Gal3S(b1-4)[Fuc(a1-3)]GlcNAc6S
In short: as §1

Gal3S4S(b1-4)GlcNAc = molecular target: Gal3S4S(b1-4)GlcNAc
In short: as §1

Gal3S6S(b1-4)GlcNAc = molecular target: Gal3S6S(b1-4)GlcNAc
In short: as §1

Gal3S6S(b1-4)GlcNAc6S = molecular target: Gal3S6S(b1-4)GlcNAc6S
In short: as §1

Gal4S(b1-4)GlcNAc = molecular target: Gal4S(b1-4)GlcNAc
In short: as §1

Gal4S6S(b1-4)GlcNAc = molecular target: Gal4S6S(b1-4)GlcNAc
In short: as §1

Gal6P(b1-4)GlcNAc = molecular target: Gal6P(b1-4)GlcNAc
In short: as §1

Gal6S(b1-3)GlcNAc = molecular target: Gal6S(b1-3)GlcNAc
In short: as §1

Gal6S(b1-3)GlcNAc6S = molecular target: Gal6S(b1-3)GlcNAc6S
In short: as §1

Gal6S(b1-4)Glc = molecular target: Gal6S(b1-4)Glc
In short: as §1

B1: Clec18A (Homo sapiens) (protein)
chain: PFHTCDLRIDGDCFMVSSEADTYYRARMKCQRKGGVLAQIKRQKVQDILAFYLGRLETTNEVIDSDFETRNFWIGLTYKTAKDSFRWATGEHQAFTSFAFGQPDNHGFGNCVELQASAAFNWNDQRCKTRNRYICQ
With B1 the “glycan array binding signal (z-score)” value [1] was 1.9, the “glycan array binding signal (z-score)” value [2] was 1.52 and the “glycan array binding signal (z-score)” value [3] was 0.45. For the same binder, the “glycan array binding signal (z-score)” value [4] was 0.556, the “glycan array binding signal (z-score)” value [5] was 2.33 and the “glycan array binding signal (z-score)” value [6] was 3.83. The “glycan array binding signal (z-score)” value [7] was 1.11, the “glycan array binding signal (z-score)” value [8] was 1.66 and the “glycan array binding signal (z-score)” value [9] was 1.23. For the same binder, the “glycan array binding signal (z-score)” value [10] was 0.263, the “glycan array binding signal (z-score)” value [11] was -0.062 and the “glycan array binding signal (z-score)” value [12] was 1.58. The “glycan array binding signal (z-score)” value [13] was 2.08, the “glycan array binding signal (z-score)” value [14] was -0.588 and the “glycan array binding signal (z-score)” value [15] was -0.53. The “glycan array binding signal (z-score)” value [16] was 1.81, the “glycan array binding signal (z-score)” value [17] was 1.02 and the “glycan array binding signal (z-score)” value [18] was 1.48. The “glycan array binding signal (z-score)” value [19] was -0.131, the “glycan array binding signal (z-score)” value [20] was 0.596 and the “glycan array binding signal (z-score)” value [21] was -0.51. The “glycan array binding signal (z-score)” value [22] was -0.214, the “glycan array binding signal (z-score)” value [23] was 0.267 and the “glycan array binding signal (z-score)” value [24] was -0.636. For the same binder, the “glycan array binding signal (z-score)” value [25] was 1.8, the “glycan array binding signal (z-score)” value (Gal(b1-4)GlcNAc6P) was 0.093 and the “glycan array binding signal (z-score)” value (Gal(b1-6)Gal) was 3. For the same binder, the “glycan array binding signal (z-score)” value (Gal3S(b1-3)GalNAc) was -0.553, the “glycan array binding signal (z-score)” value (Gal3S(b1-3)GlcNAc) was -0.638 and the “glycan array binding signal (z-score)” value [26] was -0.41. The “glycan array binding signal (z-score)” value (Gal3S(b1-4)Glc) was -0.446, the “glycan array binding signal (z-score)” value (Gal3S(b1-4)Glc6S) was -0.156 and the “glycan array binding signal (z-score)” value (Gal3S(b1-4)GlcNAc) was -0.415. The “glycan array binding signal (z-score)” value [27] was 1.54, the “glycan array binding signal (z-score)” value [28] was -0.492 and the “glycan array binding signal (z-score)” value [29] was 0.227. For the same binder, the “glycan array binding signal (z-score)” value (Gal3S4S(b1-4)GlcNAc) was -0.677, the “glycan array binding signal (z-score)” value (Gal3S6S(b1-4)GlcNAc) was -0.537 and the “glycan array binding signal (z-score)” value (Gal3S6S(b1-4)GlcNAc6S) was -0.21. The “glycan array binding signal (z-score)” value (Gal4S(b1-4)GlcNAc) was -0.378, the “glycan array binding signal (z-score)” value (Gal4S6S(b1-4)GlcNAc) was -0.79 and the “glycan array binding signal (z-score)” value (Gal6P(b1-4)GlcNAc) was -0.915. For the same binder, the “glycan array binding signal (z-score)” value (Gal6S(b1-3)GlcNAc) was 3.79, the “glycan array binding signal (z-score)” value (Gal6S(b1-3)GlcNAc6S) was -0.347 and the “glycan array binding signal (z-score)” value (Gal6S(b1-4)Glc) was -0.155.
